Some entries share one result that the patent states for a list of compounds.
Biological target: T1, HIV integrase (Human immunodeficiency virus type 1 group M subtype B, UniProt P04585)
T1 construct: HIV Integrase Assay: Strand Transfer Catalyzed by Recombinant Integrase
Assay: HIV integrase assay: strand transfer catalyzed by recombinant integrase
Type: biochemical
Settings: 'less than about', read-out: IC50, inhibition of strand transfer activity of integrase

Q: For `O=C1c2c(c3n(c(=O)c2O)CCCCN(CCN2CCCCC2)C3=O)CCN1Cc1ccc(F)c(Cl)c1` [Example 18, 11-(3-Chloro-4-fluorobenzyl)-9-hydroxy-2-(2-piperidinyl-1-ylethyl)-3,4,5,6,12,13-hexahydro-2H[1,4]diazocino[2,1-a]-2,6-naphthyridine-1,8,10(11H)-trione], which IC50 is on record?
A: < 1000 nM

Q: How did the IC50 turn out when `CS(=O)(=O)NCCN1CCCCn2c(c3c(c(O)c2=O)C(=O)N(Cc2ccc(F)c(Cl)c2)CC3)C1=O` [Example 21, 11-(3-Chloro-4-fluorobenzyl)-9-hydroxy-2-[2-(methamesulfonylamino)ethyl]-3,4,5,6,12,13-hexahydro-2H[1,4]diazocino[2,1-a]-2,6-naphthyridine-1,8,10(11H)-trione] was run?
A: < 1000 nM
